Data published in PMC9636132.
Results are given in words; binding and its absence hold for the method and conditions named. In cells and extracts the contact can be indirect. Some binding calls cover weakened binding; strength is not graded here. For some assays here: Tags and fused reporters may be left off the sequences shown.

Protein sequences, listed by entry. Tags and fused reporters are not part of them.
UniProt P49327: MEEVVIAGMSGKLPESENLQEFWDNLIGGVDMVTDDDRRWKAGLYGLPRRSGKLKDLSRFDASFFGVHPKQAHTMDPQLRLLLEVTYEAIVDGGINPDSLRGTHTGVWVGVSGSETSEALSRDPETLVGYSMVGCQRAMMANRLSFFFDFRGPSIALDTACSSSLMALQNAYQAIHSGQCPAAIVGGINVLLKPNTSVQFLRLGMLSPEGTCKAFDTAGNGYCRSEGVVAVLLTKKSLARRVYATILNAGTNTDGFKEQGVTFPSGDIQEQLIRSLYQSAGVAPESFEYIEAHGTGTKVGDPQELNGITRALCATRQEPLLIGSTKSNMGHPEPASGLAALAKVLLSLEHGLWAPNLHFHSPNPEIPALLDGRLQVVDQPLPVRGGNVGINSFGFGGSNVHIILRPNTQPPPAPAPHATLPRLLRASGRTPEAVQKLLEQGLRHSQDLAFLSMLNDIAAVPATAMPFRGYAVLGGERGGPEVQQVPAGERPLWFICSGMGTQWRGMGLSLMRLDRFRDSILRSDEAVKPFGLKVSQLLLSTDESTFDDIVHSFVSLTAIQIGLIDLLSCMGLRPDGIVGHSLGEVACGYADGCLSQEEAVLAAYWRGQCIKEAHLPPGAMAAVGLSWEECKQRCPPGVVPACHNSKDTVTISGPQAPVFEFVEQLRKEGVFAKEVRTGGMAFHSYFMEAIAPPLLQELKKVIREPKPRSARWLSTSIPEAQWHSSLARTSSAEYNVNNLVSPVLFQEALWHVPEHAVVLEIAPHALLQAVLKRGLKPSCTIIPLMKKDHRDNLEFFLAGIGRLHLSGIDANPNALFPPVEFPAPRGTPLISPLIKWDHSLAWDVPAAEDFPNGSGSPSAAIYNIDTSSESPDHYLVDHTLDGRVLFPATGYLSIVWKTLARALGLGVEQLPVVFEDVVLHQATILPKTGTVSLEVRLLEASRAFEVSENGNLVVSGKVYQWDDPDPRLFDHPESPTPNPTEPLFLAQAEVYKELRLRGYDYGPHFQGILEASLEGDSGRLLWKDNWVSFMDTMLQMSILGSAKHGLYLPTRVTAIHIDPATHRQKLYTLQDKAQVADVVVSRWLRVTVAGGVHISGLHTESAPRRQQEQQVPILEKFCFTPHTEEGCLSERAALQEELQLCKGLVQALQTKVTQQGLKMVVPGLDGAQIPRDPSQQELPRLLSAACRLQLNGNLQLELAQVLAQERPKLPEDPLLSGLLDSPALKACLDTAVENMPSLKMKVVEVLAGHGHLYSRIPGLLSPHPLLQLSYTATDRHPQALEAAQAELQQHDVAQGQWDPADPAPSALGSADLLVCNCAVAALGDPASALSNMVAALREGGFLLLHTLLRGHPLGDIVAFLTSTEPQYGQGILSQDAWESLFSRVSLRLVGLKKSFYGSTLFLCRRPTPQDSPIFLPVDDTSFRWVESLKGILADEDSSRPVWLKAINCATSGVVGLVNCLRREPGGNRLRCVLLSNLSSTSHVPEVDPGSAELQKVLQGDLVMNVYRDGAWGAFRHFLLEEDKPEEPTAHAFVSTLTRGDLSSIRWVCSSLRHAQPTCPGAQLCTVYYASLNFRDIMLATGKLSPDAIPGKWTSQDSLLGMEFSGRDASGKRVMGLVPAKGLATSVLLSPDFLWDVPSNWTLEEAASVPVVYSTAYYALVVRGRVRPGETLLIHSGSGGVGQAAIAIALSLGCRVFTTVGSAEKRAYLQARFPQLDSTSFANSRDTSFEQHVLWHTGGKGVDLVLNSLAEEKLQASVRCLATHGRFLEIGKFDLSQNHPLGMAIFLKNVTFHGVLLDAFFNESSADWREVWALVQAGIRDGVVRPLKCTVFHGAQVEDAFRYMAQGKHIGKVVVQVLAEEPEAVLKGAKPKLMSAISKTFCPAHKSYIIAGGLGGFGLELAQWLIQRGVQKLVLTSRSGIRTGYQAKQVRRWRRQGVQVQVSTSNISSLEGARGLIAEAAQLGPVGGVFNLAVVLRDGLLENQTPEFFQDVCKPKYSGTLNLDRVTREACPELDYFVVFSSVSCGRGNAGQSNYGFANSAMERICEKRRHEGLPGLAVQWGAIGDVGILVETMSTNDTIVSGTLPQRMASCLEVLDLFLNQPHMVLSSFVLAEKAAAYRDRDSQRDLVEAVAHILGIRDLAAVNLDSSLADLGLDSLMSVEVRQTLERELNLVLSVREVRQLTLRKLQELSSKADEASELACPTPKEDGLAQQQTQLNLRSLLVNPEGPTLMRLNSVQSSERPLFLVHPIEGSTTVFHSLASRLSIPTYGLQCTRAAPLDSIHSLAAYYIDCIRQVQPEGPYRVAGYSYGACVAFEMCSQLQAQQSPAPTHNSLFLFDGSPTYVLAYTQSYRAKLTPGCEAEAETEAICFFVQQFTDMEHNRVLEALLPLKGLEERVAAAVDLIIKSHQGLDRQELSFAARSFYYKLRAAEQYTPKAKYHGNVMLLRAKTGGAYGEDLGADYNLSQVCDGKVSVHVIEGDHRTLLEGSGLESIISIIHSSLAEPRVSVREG

Columns and labels:
[1] = target: Fatty Acid Synthase (FASN) (human (endogenous in RKO E6 and HT29)) (UniProt P49327); test: co-IP; reciprocal immunoprecipitation of RKO E6 and HT29 cell lysates with antibodies against USP22 and FASN, immunoblotting; IgG as isotype control
[2] = target: Flag-FASN (human) (UniProt P49327); test: co-IP; 293T cells co-transfected with HA-USP22 and Flag-tagged FASN constructs; lysates immunoprecipitated (anti-Flag antibody in Fig. 2C), immunoblotting

binding [1] | binding [2] | Binder
binds |  | USP22 (enzyme, UniProt Q9UPT9 1-525) MVSRPEPEGEAMDAELAVAPPGCSHLGSFKVDNWKQNLRAIYQCFVWSGTAEARKRKAKSCICHVCGVHLNRLHSCLYCVFFGCFTKKHIHEHAKAKRHNLAIDLMYGGIYCFLCQDYIYDKDMEIIAKEEQRKAWKMQGVGEKFSTWEPTKRELELLKHNPKRRKITSNCTIGLRGLINLGNTCFMNCIVQALTHTPLLRDFFLSDRHRCEMQSPSSCLVCEMSSLFQEFYSGHRSPHIPYKLLHLVWTHARHLAGYEQQDAHEFLIAALDVLHRHCKGDDNGKKANNPNHCNCIIDQIFTGGLQSDVTCQVCHGVSTTIDPFWDISLDLPGSSTPFWPLSPGSEGNVVNGESHVSGTTTLTDCLRRFTRPEHLGSSAKIKCSGCHSYQESTKQLTMKKLPIVACFHLKRFEHSAKLRRKITTYVSFPLELDMTPFMASSKESRMNGQYQQPTDSLNNDNKYSLFAVVNHQGTLESGHYTSFIRQHKDQWFKCDDAIITKASIKDVLDSEGYLLFYHKQFLEYE
 | binds | HA-USP22 (enzyme, UniProt Q9UPT9 1-525) MVSRPEPEGEAMDAELAVAPPGCSHLGSFKVDNWKQNLRAIYQCFVWSGTAEARKRKAKSCICHVCGVHLNRLHSCLYCVFFGCFTKKHIHEHAKAKRHNLAIDLMYGGIYCFLCQDYIYDKDMEIIAKEEQRKAWKMQGVGEKFSTWEPTKRELELLKHNPKRRKITSNCTIGLRGLINLGNTCFMNCIVQALTHTPLLRDFFLSDRHRCEMQSPSSCLVCEMSSLFQEFYSGHRSPHIPYKLLHLVWTHARHLAGYEQQDAHEFLIAALDVLHRHCKGDDNGKKANNPNHCNCIIDQIFTGGLQSDVTCQVCHGVSTTIDPFWDISLDLPGSSTPFWPLSPGSEGNVVNGESHVSGTTTLTDCLRRFTRPEHLGSSAKIKCSGCHSYQESTKQLTMKKLPIVACFHLKRFEHSAKLRRKITTYVSFPLELDMTPFMASSKESRMNGQYQQPTDSLNNDNKYSLFAVVNHQGTLESGHYTSFIRQHKDQWFKCDDAIITKASIKDVLDSEGYLLFYHKQFLEYE
